From patent US20170183404A1
No constants are given. Whether binding was seen depends on the method and setting. Binding calls can cover weak binding; strength is not graded here.

Molecular target: truncDelta mMor1 reconstituted in liposomes (mouse)
Experiment: ELISA, periplasmic extract on truncDelta mMor1 liposomes with Dmt1-Dalda

B1: XA8727 (VHH)
VHH: QVQLVESGGGLVQAGGSLRLSCAASGFTFDDYAIAWFRQAPGKEREGVSCISSSDGSTYYADSVKGRFTISNDNAKNTVYLQMNSLKPEDTAVYYCAADLSRSCGRGYRYLEVWGQGTQVTVSS
With B1 the binding was “binds”.
